Experimental findings from article PMC2774294 are described below.

The chains behind the UniProt entries cited, without tags or fusion partners.
UniProt Q04206: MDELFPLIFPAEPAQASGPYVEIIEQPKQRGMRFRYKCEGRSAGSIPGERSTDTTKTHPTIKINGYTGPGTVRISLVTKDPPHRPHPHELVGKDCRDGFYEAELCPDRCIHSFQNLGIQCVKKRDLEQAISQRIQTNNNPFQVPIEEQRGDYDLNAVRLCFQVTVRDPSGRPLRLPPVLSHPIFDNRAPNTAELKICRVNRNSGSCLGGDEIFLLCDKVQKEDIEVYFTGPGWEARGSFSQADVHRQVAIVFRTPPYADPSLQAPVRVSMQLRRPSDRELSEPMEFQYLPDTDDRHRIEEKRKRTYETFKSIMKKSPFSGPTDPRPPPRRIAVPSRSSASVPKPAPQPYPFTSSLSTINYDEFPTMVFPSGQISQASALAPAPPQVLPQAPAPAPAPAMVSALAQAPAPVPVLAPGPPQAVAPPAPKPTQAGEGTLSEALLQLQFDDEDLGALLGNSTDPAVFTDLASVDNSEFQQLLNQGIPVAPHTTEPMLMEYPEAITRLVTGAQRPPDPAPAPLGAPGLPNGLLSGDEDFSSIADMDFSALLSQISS

Results are given in words; binding and its absence hold for the method and conditions named. Binding seen in cells or lysates may run through a third protein. Some results given as binding are weak or reduced against the parent protein; the word gives no strength.

Assay [1] deals with T1, NF-κB subunit p52 (NF-κB2) (human (endogenous in HNE2-LMP1)) (UniProt Q00653).
T1 sequence: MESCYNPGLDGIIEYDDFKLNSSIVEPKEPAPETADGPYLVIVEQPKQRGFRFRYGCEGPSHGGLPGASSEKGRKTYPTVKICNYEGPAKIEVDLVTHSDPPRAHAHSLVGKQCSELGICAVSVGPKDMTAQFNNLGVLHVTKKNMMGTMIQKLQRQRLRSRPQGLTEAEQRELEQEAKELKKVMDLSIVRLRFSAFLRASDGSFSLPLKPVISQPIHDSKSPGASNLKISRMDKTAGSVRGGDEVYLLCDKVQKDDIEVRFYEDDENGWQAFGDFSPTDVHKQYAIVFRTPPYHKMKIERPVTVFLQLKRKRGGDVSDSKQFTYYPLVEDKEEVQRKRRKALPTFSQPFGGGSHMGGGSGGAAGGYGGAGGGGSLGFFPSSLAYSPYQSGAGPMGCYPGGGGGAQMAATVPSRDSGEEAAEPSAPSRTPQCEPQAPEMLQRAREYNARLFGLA
The assay is described as follows: co-IP; 200 μg non-denatured nuclear extract of HNE2-LMP1 cells, precleared; 2 μg antibody to one member overnight at 4°C, protein A-Sepharose; buffer 1× PBS, 0.5% Nonidet P-40, 0.5% sodium deoxycholate, 0.1% SDS; three washes; Western blot for the other member; control IgG. (A western blot detects proteins with antibodies after separation by electrophoresis.)

Assay [2] has as its target NF-κB subunit p65 (RelA) (human (endogenous in HNE2-LMP1)) (UniProt Q04206). The assay is described as above.

With “NF-κB subunit p65 (RelA) (from UniProt Q04206 1-551)”, in assay [1], the binding entry is “binds”.

B1: NF-κB subunit p52 (NF-κB2) (protein, UniProt Q00653 1-454)
chain: T1 sequence
Regarding B1, the binding result in assay [2] is reported as “binds”.
